# Laboratory results published in US20250145695A1.
# By UniProt entry, the sequences of proteins in these tests, tags left out. Where a name states a change or a piece, a line headed by the entry shows the natural chain unless it says otherwise.
# UniProt Q13148: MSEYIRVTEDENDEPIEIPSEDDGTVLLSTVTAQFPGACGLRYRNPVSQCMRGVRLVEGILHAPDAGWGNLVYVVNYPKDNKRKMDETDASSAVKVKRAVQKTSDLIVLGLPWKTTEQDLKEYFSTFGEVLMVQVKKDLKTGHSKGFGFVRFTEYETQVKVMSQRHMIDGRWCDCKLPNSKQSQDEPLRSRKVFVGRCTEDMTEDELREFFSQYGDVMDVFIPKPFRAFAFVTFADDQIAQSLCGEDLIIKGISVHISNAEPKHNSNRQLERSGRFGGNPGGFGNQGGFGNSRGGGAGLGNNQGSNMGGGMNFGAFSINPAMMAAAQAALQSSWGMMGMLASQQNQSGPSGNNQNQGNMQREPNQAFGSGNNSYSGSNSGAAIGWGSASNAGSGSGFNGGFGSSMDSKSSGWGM
# No constants are given. Whether binding was seen depends on the method and setting. Some entries that bind do so weakly or less than the wild type.
# How the values were obtained:
# [1] = target: native TDP-43 in cynomolgus monkey serum (cynomolgus monkey); assay: SIMOA of unbound TDP-43 in serum of dosed cynomolgus monkeys
# [2] = target: aggregated and phosphorylated TDP-43 enriched from an FTLD-TDP brain extract (human) (UniProt Q13148); assay: immunodepletion of FTLD-TDP brain extract, Western blot quantification normalized to input (Example 13)
# [3] = target: native TDP-43 in cynomolgus monkey serum (cynomolgus monkey); assay: SIMOA measurement of free/unbound TDP-43 in cynomolgus monkey serum after a single IV bolus of 40 mg/kg (target engagement, Example 10)
# [4] = target: aggregated and phosphorylated TDP-43 enriched from an FTLD-TDP brain extract (human) (UniProt Q13148); assay: immunodepletion of FTLD-TDP brain extract, TDP-43 immunoblot
binding [1],binding [2],binding [3],binding [4],Binder
binds,binds,binds,binds,"hACI-7069-633B12-Ab1_H33L27 (antibody, V domains shown) VH: EVQLVQSGAEVKKPGATVKISCKVSGFTFTEYSMHWVQQAPGKGLEWMGGINPNNGGTSYNQKFQGRVTITADTSTDTAYMELSSLRSEDTAVYYCARESWGQGTTVTVSS VL: DIVMTQSPLSLPVTPGEPASISCKSSQSLLHSDGKTYLNWLLQKPGQSPQRLIYLVSKLDSRVPDRFSGSGSGTDFTLKISRVEAEDVGVYYCFQGTHFPHTFGQGTKLEIK"
binds,–,binds,–,"hACI-7069-633B12-Ab1_H32L27 (antibody, V domains shown) VH: EVQLVQSGAEVKKPGATVKISCKVSGFTFTEYSMHWVQQAPGKGLEWMGGINPQNAGTSYNQKFQGRVTITADTSTDTAYMELSSLRSEDTAVYYCARESWGQGTTVTVSS VL: DIVMTQSPLSLPVTPGEPASISCKSSQSLLHSDGKTYLNWLLQKPGQSPQRLIYLVSKLDSRVPDRFSGSGSGTDFTLKISRVEAEDVGVYYCFQGTHFPHTFGQGTKLEIK"
